PubChem BioAssay AID1224830, NIAID | 2016
In all, the deposit lists about 18,000 reagents; shown is a random part of them. About 2,900 of them (16%) count as active. 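Calls are made per well; low scores hint the gene aids the LPS response, high scores that it dampens it.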 Repeated entries: four replicate wells of each siRNA pool.

- Screen: 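Regulators of TLR4 signalling towards TNF-alpha in macrophage-like cells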 (primary screen)
- Cell system: human THP-1 monocytic leukaemia cells, TNF dual-luciferase reporter clone, PMA-differentiated to macrophage-like cells
- Knock-down reagent: siRNA pool against human genes, 50 nM
- Duration: LPS for 4 h, given about 3 days after siRNA transfection
- Conditions: bacterial LPS (TLR4 ligand), 10 ng/ml
- Measurement: 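TNF firefly reporter luminescence divided by renilla, normalised to the plate median, then turned into a robust z-score for each replicate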
- Scale: TNF reporter robust z-score: higher = stronger TNF reporter response to LPS
- Hit rule: 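a well is active when its z-score exceeds 2.8 or falls below -1.5; control wells carry no call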

The first 2 entries as a preview:
Target gene | TNF reporter robust z-score | Outcome
NAA20 (N-alpha-acetyltransferase 20, NatB catalytic subunit) | -0.78 | inactive
NAA20 (N-alpha-acetyltransferase 20, NatB catalytic subunit) | -0.46 | inactive

Main list, from the first entry:
Target gene | TNF reporter robust z-score | Outcome
NAA20 (N-alpha-acetyltransferase 20, NatB catalytic subunit) | -0.78 | inactive
NAA20 (N-alpha-acetyltransferase 20, NatB catalytic subunit) | -0.46 | inactive
NAA20 (N-alpha-acetyltransferase 20, NatB catalytic subunit) | -1.47 | inactive
NAA20 (N-alpha-acetyltransferase 20, NatB catalytic subunit) | 1.29 | inactive
OR8G2P (olfactory receptor family 8 subfamily G member 2 pseudogene) | -0.3 | inactive
OR8G2P (olfactory receptor family 8 subfamily G member 2 pseudogene) | -0.06 | inactive
OR8G2P (olfactory receptor family 8 subfamily G member 2 pseudogene) | -0.26 | inactive
OR8G2P (olfactory receptor family 8 subfamily G member 2 pseudogene) | 2.45 | inactive
TRIM48 (tripartite motif containing 48) | -0.25 | inactive
TRIM48 (tripartite motif containing 48) | 0.91 | inactive
TRIM48 (tripartite motif containing 48) | -1.22 | inactive
TRIM48 (tripartite motif containing 48) | -1.61 | active
OR8K3 | 0.68 | inactive
OR8K3 | -0.06 | inactive
OR8K3 | 1.57 | inactive
PCSK5 (proprotein convertase subtilisin/kexin type 5) | -0.11 | inactive
PCSK5 (proprotein convertase subtilisin/kexin type 5) | 0.17 | inactive
PCSK5 (proprotein convertase subtilisin/kexin type 5) | -0.66 | inactive
PCSK5 (proprotein convertase subtilisin/kexin type 5) | 1.08 | inactive
PIK3R5 (phosphoinositide-3-kinase regulatory subunit 5) | 0.28 | inactive
PIK3R5 (phosphoinositide-3-kinase regulatory subunit 5) | 0.04 | inactive
PIK3R5 (phosphoinositide-3-kinase regulatory subunit 5) | -0.7 | inactive
PIK3R5 (phosphoinositide-3-kinase regulatory subunit 5) | 0.33 | inactive
ALK (ALK receptor tyrosine kinase) | -1.98 | active
ALK (ALK receptor tyrosine kinase) | -1.92 | active
ALK (ALK receptor tyrosine kinase) | -1.73 | active
ALK (ALK receptor tyrosine kinase) | -1.13 | inactive
SGSM1 (small G protein signaling modulator 1) | -0.58 | inactive
SGSM1 (small G protein signaling modulator 1) | 0.11 | inactive
SGSM1 (small G protein signaling modulator 1) | 0.13 | inactive
SGSM1 (small G protein signaling modulator 1) | 1.3 | inactive
SS18L1 (SS18L1 subunit of BAF chromatin remodeling complex) | -0.1 | inactive
SS18L1 (SS18L1 subunit of BAF chromatin remodeling complex) | -0.44 | inactive
SS18L1 (SS18L1 subunit of BAF chromatin remodeling complex) | 0.04 | inactive
SS18L1 (SS18L1 subunit of BAF chromatin remodeling complex) | -0.72 | inactive
SAR1A (secretion associated Ras related GTPase 1A) | – | inactive
UTP3 (UTP3 small subunit processome component) | -0.48 | inactive
UTP3 (UTP3 small subunit processome component) | 0.21 | inactive
UTP3 (UTP3 small subunit processome component) | -1.28 | inactive
UTP3 (UTP3 small subunit processome component) | 0.15 | inactive
PPRC1 (PPARG related coactivator 1) | 0.83 | inactive
PPRC1 (PPARG related coactivator 1) | 2.14 | inactive
PPRC1 (PPARG related coactivator 1) | 0.58 | inactive
PPRC1 (PPARG related coactivator 1) | 2.75 | inactive
DIPK2B (divergent protein kinase domain 2B) | 0.62 | inactive
DIPK2B (divergent protein kinase domain 2B) | -0.75 | inactive
DIPK2B (divergent protein kinase domain 2B) | -0.09 | inactive
DIPK2B (divergent protein kinase domain 2B) | 1.29 | inactive
PDC (phosducin) | 2.8 | active
PDC (phosducin) | 0.91 | inactive
PDC (phosducin) | -0.5 | inactive
PDC (phosducin) | -0.23 | inactive
CDCA3 (cell division cycle associated 3) | 1.3 | inactive
CDCA3 (cell division cycle associated 3) | 0.27 | inactive
CDCA3 (cell division cycle associated 3) | 0.58 | inactive
CDCA3 (cell division cycle associated 3) | -0.74 | inactive
DNALI1 (dynein axonemal light intermediate chain 1) | -0.4 | inactive
DNALI1 (dynein axonemal light intermediate chain 1) | 1.25 | inactive
DNALI1 (dynein axonemal light intermediate chain 1) | 0.33 | inactive
DNALI1 (dynein axonemal light intermediate chain 1) | 2.4 | inactive
POLD2 (DNA polymerase delta 2, accessory subunit) | 1.53 | inactive
POLD2 (DNA polymerase delta 2, accessory subunit) | 2.54 | inactive
POLD2 (DNA polymerase delta 2, accessory subunit) | 0.45 | inactive
POLD2 (DNA polymerase delta 2, accessory subunit) | 1.88 | inactive
PPM1D (protein phosphatase, Mg2+/Mn2+ dependent 1D) | 0.63 | inactive
PPM1D (protein phosphatase, Mg2+/Mn2+ dependent 1D) | -0.6 | inactive
PPM1D (protein phosphatase, Mg2+/Mn2+ dependent 1D) | -0.55 | inactive
PPM1D (protein phosphatase, Mg2+/Mn2+ dependent 1D) | -0.43 | inactive
SPRYD3 (SPRY domain containing 3) | -0.81 | inactive
SPRYD3 (SPRY domain containing 3) | -0.34 | inactive
SPRYD3 (SPRY domain containing 3) | -1.29 | inactive
SPRYD3 (SPRY domain containing 3) | -1.04 | inactive
SCO2 (synthesis of cytochrome C oxidase 2) | -1.25 | inactive
SCO2 (synthesis of cytochrome C oxidase 2) | -1.23 | inactive
SCO2 (synthesis of cytochrome C oxidase 2) | -0.37 | inactive
SCO2 (synthesis of cytochrome C oxidase 2) | -0.09 | inactive
